{"source": "PubChem BioAssay AID1224829 – NIAID | 2016", "assay": "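Follow-up of TLR4-NF-kappaB regulators using six separate siRNAs for each gene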 (follow-up of hits)", "cells": "mouse RAW264.7 G9 macrophage reporter cells", "reagents": "single siRNA against mouse genes, 100 nM", "duration": "2 days of siRNA knock-down, then 40 min of LPS before fixing", "conditions": "LPS (Salmonella minnesota R595) at 10 ng/ml", "measurement": "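Imaging of GFP-p65 after 40 min of LPS; nuclear over perinuclear ring intensity ratio, scaled to plate median and non-targeting control wells, given as z-score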", "scale": "p65 translocation z-score: higher = more nuclear NF-kappaB p65 after LPS", "rule for the call": "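An siRNA is called active when the mean z-score of its two replicates is above 2 or below -2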", "calls": "active = changed p65 translocation (either direction); inactive = no clear change", "note": "The deposit covers about 3,800 reagents; below is an unselected part. 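Calls cover raised and lowered translocation; gene median uses one vendor's three siRNAs; qiagen siRNAs acted more weakly than ambion siRNAs.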 A number with no mark means an inactive call. Reagents against one gene are numbered here. Further read-outs or replicates are left out here."}
{"Target gene": "Aprt (GeneID 11821)", "siRNA no.": 1, "siRNA vendor or control pool": "ambion single siRNA", "p65 translocation z-score, replicate mean": 0.639}
{"Target gene": "Aprt (GeneID 11821)", "siRNA no.": 2, "siRNA vendor or control pool": "ambion single siRNA", "p65 translocation z-score, replicate mean": -0.14}
{"Target gene": "Aprt (GeneID 11821)", "siRNA no.": 3, "siRNA vendor or control pool": "ambion single siRNA", "p65 translocation z-score, replicate mean": "-3.45 (active)"}
{"Target gene": "Aprt (GeneID 11821)", "siRNA no.": 4, "siRNA vendor or control pool": "qiagen single siRNA", "p65 translocation z-score, replicate mean": 1.61}
{"Target gene": "Aprt (GeneID 11821)", "siRNA no.": 5, "siRNA vendor or control pool": "qiagen single siRNA", "p65 translocation z-score, replicate mean": -0.728}
{"Target gene": "Aprt (GeneID 11821)", "siRNA no.": 6, "siRNA vendor or control pool": "qiagen single siRNA", "p65 translocation z-score, replicate mean": "-4.13 (active)"}
{"Target gene": "Ucp2 (GeneID 22228)", "siRNA no.": 1, "siRNA vendor or control pool": "ambion single siRNA", "p65 translocation z-score, replicate mean": "2.05 (active)"}
{"Target gene": "Ucp2 (GeneID 22228)", "siRNA no.": 2, "siRNA vendor or control pool": "ambion single siRNA", "p65 translocation z-score, replicate mean": "-2.02 (active)"}
{"Target gene": "Ucp2 (GeneID 22228)", "siRNA no.": 3, "siRNA vendor or control pool": "ambion single siRNA", "p65 translocation z-score, replicate mean": 1.13}
{"Target gene": "Ucp2 (GeneID 22228)", "siRNA no.": 4, "siRNA vendor or control pool": "qiagen single siRNA", "p65 translocation z-score, replicate mean": "2.19 (active)"}
{"Target gene": "Ucp2 (GeneID 22228)", "siRNA no.": 5, "siRNA vendor or control pool": "qiagen single siRNA", "p65 translocation z-score, replicate mean": -0.95}
{"Target gene": "Ucp2 (GeneID 22228)", "siRNA no.": 6, "siRNA vendor or control pool": "qiagen single siRNA", "p65 translocation z-score, replicate mean": -1.55}
{"Target gene": "Ndor1 (GeneID 78797)", "siRNA no.": 1, "siRNA vendor or control pool": "ambion single siRNA", "p65 translocation z-score, replicate mean": "-2.45 (active)"}
{"Target gene": "Ndor1 (GeneID 78797)", "siRNA no.": 2, "siRNA vendor or control pool": "ambion single siRNA", "p65 translocation z-score, replicate mean": "-5.41 (active)"}
{"Target gene": "Ndor1 (GeneID 78797)", "siRNA no.": 3, "siRNA vendor or control pool": "ambion single siRNA", "p65 translocation z-score, replicate mean": -1.31}
{"Target gene": "Ndor1 (GeneID 78797)", "siRNA no.": 4, "siRNA vendor or control pool": "qiagen single siRNA", "p65 translocation z-score, replicate mean": 1.9}
{"Target gene": "Ndor1 (GeneID 78797)", "siRNA no.": 5, "siRNA vendor or control pool": "qiagen single siRNA", "p65 translocation z-score, replicate mean": "3.43 (active)"}
{"Target gene": "Ndor1 (GeneID 78797)", "siRNA no.": 6, "siRNA vendor or control pool": "qiagen single siRNA", "p65 translocation z-score, replicate mean": 2}
{"Target gene": "Mrpl35 (GeneID 66223)", "siRNA no.": 1, "siRNA vendor or control pool": "ambion single siRNA", "p65 translocation z-score, replicate mean": -1.48}
{"Target gene": "Mrpl35 (GeneID 66223)", "siRNA no.": 2, "siRNA vendor or control pool": "ambion single siRNA", "p65 translocation z-score, replicate mean": "2.78 (active)"}
{"Target gene": "Mrpl35 (GeneID 66223)", "siRNA no.": 3, "siRNA vendor or control pool": "ambion single siRNA", "p65 translocation z-score, replicate mean": -1.61}
{"Target gene": "Mrpl35 (GeneID 66223)", "siRNA no.": 4, "siRNA vendor or control pool": "qiagen single siRNA", "p65 translocation z-score, replicate mean": 1.93}
{"Target gene": "Mrpl35 (GeneID 66223)", "siRNA no.": 5, "siRNA vendor or control pool": "qiagen single siRNA", "p65 translocation z-score, replicate mean": 1.97}
{"Target gene": "Mrpl35 (GeneID 66223)", "siRNA no.": 6, "siRNA vendor or control pool": "qiagen single siRNA", "p65 translocation z-score, replicate mean": -1.27}
{"Target gene": "Acox2 (GeneID 93732)", "siRNA no.": 1, "siRNA vendor or control pool": "ambion single siRNA", "p65 translocation z-score, replicate mean": 0.826}
{"Target gene": "Acox2 (GeneID 93732)", "siRNA no.": 2, "siRNA vendor or control pool": "ambion single siRNA", "p65 translocation z-score, replicate mean": -0.95}
{"Target gene": "Acox2 (GeneID 93732)", "siRNA no.": 3, "siRNA vendor or control pool": "ambion single siRNA", "p65 translocation z-score, replicate mean": "-5.05 (active)"}
{"Target gene": "Acox2 (GeneID 93732)", "siRNA no.": 4, "siRNA vendor or control pool": "qiagen single siRNA", "p65 translocation z-score, replicate mean": 0.143}
{"Target gene": "Acox2 (GeneID 93732)", "siRNA no.": 5, "siRNA vendor or control pool": "qiagen single siRNA", "p65 translocation z-score, replicate mean": "3.1 (active)"}
{"Target gene": "Acox2 (GeneID 93732)", "siRNA no.": 6, "siRNA vendor or control pool": "qiagen single siRNA", "p65 translocation z-score, replicate mean": "2.51 (active)"}
